From publication PMC9135408

Assays:
[1] = target: T1, FOXA1 (human (endogenous in LNCaP)) (UniProt P55317); experiment: affinity purification with mass spectrometry; RIME: LNCaP cells treated with enzalutamide; fixed in 1% formaldehyde 10 min, lysed at 4°C in RIPA buffer, sonicated; endogenous FOXA1 precipitated with two FOXA1 antibodies against distinct epitopes, Protein A magnetic beads; unique peptides by …
T1 sequence: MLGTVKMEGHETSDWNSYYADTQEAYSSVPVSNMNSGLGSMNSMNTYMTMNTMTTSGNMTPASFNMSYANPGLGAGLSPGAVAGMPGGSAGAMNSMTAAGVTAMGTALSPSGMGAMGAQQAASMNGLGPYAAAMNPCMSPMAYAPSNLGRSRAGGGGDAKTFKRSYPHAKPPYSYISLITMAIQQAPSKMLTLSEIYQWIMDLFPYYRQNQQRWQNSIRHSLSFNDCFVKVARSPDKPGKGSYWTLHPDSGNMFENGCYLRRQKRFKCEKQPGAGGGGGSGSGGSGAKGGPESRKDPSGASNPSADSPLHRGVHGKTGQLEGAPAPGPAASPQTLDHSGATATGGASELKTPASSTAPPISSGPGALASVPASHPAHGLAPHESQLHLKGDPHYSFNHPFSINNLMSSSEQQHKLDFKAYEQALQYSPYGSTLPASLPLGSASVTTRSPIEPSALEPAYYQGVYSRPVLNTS

[2] = target: V5-tagged CREB5 (cAMP-responsive element binding protein 5), wild type (human) (UniProt Q02930); experiment: affinity purification with mass spectrometry; RIME: LNCaP cells overexpressing the V5-tagged bait (CREB5, CREB5 L434P, CREB3 or luciferase), standard media or enzalutamide; 50 million cells fixed in 1% formaldehyde 10 min, lysed at 4°C in RIPA buffer, sonicated; V5 antibody overnight at 4°C, Protein A magnetic beads; proteins precipitated by the V5 antibody or luciferase subtracted; unique peptides by LC-MS/MS

- binding [1]: binds
- binding [2]: binds
B1: TBX3 (protein, UniProt O15119 1-743)
chain: MSLSMRDPVIPGTSMAYHPFLPHRAPDFAMSAVLGHQPPFFPALTLPPNGAAALSLPGALAKPIMDQLVGAAETGIPFSSLGPQAHLRPLKTMEPEEEVEDDPKVHLEAKELWDQFHKRGTEMVITKSGRRMFPPFKVRCSGLDKKAKYILLMDIIAADDCRYKFHNSRWMVAGKADPEMPKRMYIHPDSPATGEQWMSKVVTFHKLKLTNNISDKHGFTLAFPSDHATWQGNYSFGTQTILNSMHKYQPRFHIVRANDILKLPYSTFRTYLFPETEFIAVTAYQNDKITQLKIDNNPFAKGFRDTGNGRREKRKQLTLQSMRVFDERHKKENGTSDESSSEQAAFNCFAQASSPAASTVGTSNLKDLCPSEGESDAEAESKEEHGPEACDAAKISTTTSEEPCRDKGSPAVKAHLFAAERPRDSGRLDKASPDSRHSPATISSSTRGLGAEERRSPVREGTAPAKVEEARALPGKEAFAPLTVQTDAAAAHLAQGPLPGLGFAPGLAGQQFFNGHPLFLHPSQFAMGGAFSSMAAAGMGPLLATVSGASTGVSGLDSTAMASAAAAQGLSGASAATLPFHLQQHVLASQGLAMSPFGSLFPYPYTYMAAAAAASSAAASSSVHRHPFLNLNTMRPRLRYSPYSIPVPVPDGSSLLTTALPSMAAAAGPLDGKVAALAASPASVAVDSGSELNSRSSTLSSSSMSLSPKLCAEKEAATSELQSIQRLVSGLEAKPDRSRSASP

These are yes or no findings as the source states them, for the method shown. Binding seen in cells or lysates may run through a third protein. A yes stands for co-enrichment or nearness to the bait. Other partners may have been found. For some assays here: Sequences can lack the tags named with a protein.
